Values from PubChem BioAssay AID652243 (Drosophila RNAi Screening Center, 2013).
In all, the deposit lists about 24,000 reagents; this is an unselected part of those with a known target gene and a result. In the full data, 246 (1%) got an active call. 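Plates not normalised; calls are printed but the firefly/Renilla ratio behind them is not deposited; fold cut for lowering reported inconsistently.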 The raw values are shown without normalisation. Names joined by + are all predicted targets of the reagent. Reagent sequences are not shown. Not stated in the record: the amount of reagent.

Assay: 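Knock-downs that decrease or increase androgen receptor reporter signal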 (primary screen)
Cell system: Drosophila S2R+ cells
Reagent: long dsRNA against Drosophila genes
Duration: 72 h (48 h, then 24 h hormone)
Treatment: synthetic androgen R1881 at 10 nM for 24 h
Read-out: 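Firefly light from an androgen-responsive reporter and Renilla control light per well, raw and unnormalised, for each of two replicates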
Direction: firefly reporter light: higher = more light from androgen-responsive reporter; Renilla control light: higher = more constitutive control signal (cell number, transfection)
Rule for the call: 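Hit when the log firefly-to-Renilla ratio dropped or increased by a fixed fold versus the mean of GFP or LacZ controls across duplicate plates; lowering cut given as 1.5 and as 3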
Calls: active = hit: reporter lowered or raised; inactive = no hit

no.	target	DRSC id	firefly reporter light, replicate 1	firefly reporter light, replicate 2	Renilla control light, replicate 1	Renilla control light, replicate 2	activity call
1	Bili	DRSC14405	73900	53562	4.00e5	3.86e5	inactive
2	CG12985	DRSC19505	8.02e5	8.23e5	3.48e6	3.16e6	inactive
3	CG12985	DRSC26985	3.52e5	3.79e5	9.25e5	6.24e5	inactive
4	CG16727	DRSC15139	3.04e5	2.85e5	3.44e6	3.77e6	inactive
5	CG16727	DRSC26820	3.88e5	4.14e5	6.86e5	7.07e5	inactive
6	CG14000	DRSC02332	84607	96852	1.23e6	1.15e6	inactive
7	bb8	DRSC15578	2.36e5	2.51e5	2.12e6	2.81e6	inactive
8	CG16790	DRSC15156	1.10e5	1.43e5	1.49e6	1.13e6	inactive
9	CG13658	DRSC14659	2.57e5	2.32e5	2.90e6	2.39e6	inactive
10	CG13658	DRSC25434	1.13e6	7.89e5	1.17e6	1.29e6	inactive
11	CG15025	DRSC15031	1.86e5	2.00e5	2.35e6	2.67e6	inactive
12	Cks30A	DRSC03292	6.63e5	7.89e5	1.86e6	1.64e6	inactive
13	Cks30A	DRSC36661					inactive
14	Ssrp	DRSC04658	3.68e5	3.32e5	9.17e5	1.04e6	inactive
15	Ssrp	DRSC29959	4.08e5	3.22e5	1.32e6	1.08e6	inactive
16	Ssrp	DRSC38960	4.64e5	3.17e5	1.42e6	1.27e6	inactive
17	l(1)G0196	DRSC20591	6.38e5	6.60e5	1.28e6	1.06e6	inactive
18	l(1)G0196	DRSC20629	2.83e5	1.90e5	5.53e5	4.27e5	inactive
19	l(1)G0196	DRSC39295					inactive
20	Cyp318a1	DRSC19784	4.37e5	3.90e5	3.24e6	3.11e6	inactive
21	spz4	DRSC02410	3.86e5	2.90e5	1.43e6	1.78e6	inactive
22	spz4	DRSC27274	2.26e5	2.57e5	6.90e5	6.82e5	inactive
23	CG11112	DRSC06038	4.09e5	4.45e5	1.82e6	1.51e6	inactive
24	CG11112	DRSC25552	9.29e5	1.01e6	9.55e5	1.17e6	inactive
25	pdgy	DRSC19064	5.58e5	7.72e5	1.66e6	2.07e6	inactive
26	pdgy	DRSC19341	1.06e5	1.15e5	7.00e5	8.52e5	inactive
27	Dolk	DRSC07143	1.23e5	82053	7.98e5	7.98e5	inactive
28	mus81	DRSC18180	2.94e5	2.74e5	4.83e6	3.20e6	inactive
29	mus81	DRSC18644	4.28e5	3.72e5	1.59e6	2.87e6	inactive
30	CG30177	DRSC22680	5.22e5	5.86e5	8.21e5	8.33e5	inactive
31	Trxr2	DRSC11900	1.51e5	1.18e5	1.68e6	1.12e6	inactive
32	Trxr2	DRSC25519	3.95e5	3.27e5	6.11e5	5.08e5	inactive
33	CG15160	DRSC02461	1.77e5	1.93e5	2.19e6	2.37e6	inactive
34	CG15160	DRSC27129	3.29e5	2.65e5	5.98e5	5.16e5	inactive
35	e(y)2b	DRSC12556	61990	72045	1.58e6	1.17e6	inactive
36	CG13438	DRSC06398	38198	36675	6.95e5	8.66e5	inactive
37	spict	DRSC02157	1.39e6	1.32e6	1.55e6	1.41e6	inactive
38	spict	DRSC28072	5.17e5	3.55e5	2.01e6	1.66e6	inactive
39	spict	DRSC39020	9.75e5	1.10e6	1.99e6	2.02e6	inactive
40	CG6700	DRSC02980	1.07e6	3.85e5	2.33e6	1.30e6	inactive
41	CG6700	DRSC25626	8.31e5	6.77e5	1.10e6	9.91e5	inactive
42	CG33160	DRSC08197	79390	96772	1.32e6	1.08e6	inactive
43	CG33160	DRSC26770	3.17e5	2.39e5	1.92e5	2.79e5	inactive
44	CG15210	DRSC19656	5.10e5	4.34e5	4.09e6	4.62e6	inactive
45	CG15210	DRSC27768	3.01e5	2.61e5	6.28e5	8.88e5	inactive
46	CG14131	DRSC10135	3.31e5	1.66e5	2.28e6	1.10e6	inactive
47	CG14131	DRSC27727	2.24e5	3.38e5	6.29e5	6.77e5	inactive
48	Mcm2	DRSC16734	59727	51548	1.68e6	1.48e6	inactive
49	Mcm2	DRSC26612	2.42e5	1.37e5	6.36e5	6.71e5	inactive
50	CG13501	DRSC04146	2.36e5	1.91e5	1.33e6	1.12e6	inactive
51	CG15390	DRSC00404	1.06e5	98858	6.86e5	9.88e5	inactive
52	GstT1	DRSC06243	4.91e5	2.61e5	2.58e6	2.29e6	inactive
53	Rab14	DRSC03403	1.02e6	1.04e6	2.21e6	1.80e6	inactive
54	Rab14	DRSC28941	7.26e5	5.93e5	7.92e5	9.50e5	inactive
55	CG12715	DRSC19492	4.26e5	3.98e5	3.33e6	3.59e6	inactive
56	CG34234 + Dh44-R2	DRSC07278	7.89e5	7.96e5	1.36e6	1.52e6	inactive
57	Rab9	DRSC03281	2.24e5	2.36e5	2.01e6	2.21e6	inactive
58	Syx5	DRSC03432	1.07e6	1.13e6	1.70e6	1.67e6	inactive

9 entries from above, set out differently:
target,DRSC id,"firefly reporter light, replicate 1","firefly reporter light, replicate 2","Renilla control light, replicate 1","Renilla control light, replicate 2",activity call
CG16790,DRSC15156,1.10e5,1.43e5,1.49e6,1.13e6,inactive
CG13658,DRSC14659,2.57e5,2.32e5,2.90e6,2.39e6,inactive
CG13658,DRSC25434,1.13e6,7.89e5,1.17e6,1.29e6,inactive
CG15025,DRSC15031,1.86e5,2.00e5,2.35e6,2.67e6,inactive
Cks30A,DRSC03292,6.63e5,7.89e5,1.86e6,1.64e6,inactive
Cks30A,DRSC36661,,,,,inactive
Ssrp,DRSC04658,3.68e5,3.32e5,9.17e5,1.04e6,inactive
Ssrp,DRSC29959,4.08e5,3.22e5,1.32e6,1.08e6,inactive
Ssrp,DRSC38960,4.64e5,3.17e5,1.42e6,1.27e6,inactive
